# Results of single-concentration screens

From ChEMBL document CHEMBL3988442, “University of Dundee, Small-Polar-MMV Screening Library” (2021).

Results are given as percent effect. How 0% and 100% were set is not recorded. Most values in the screen are low, and negative values occur. The compounds are a random part of those screened.

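Whole-parasite assay of Trypanosoma brucei over 72 hours; the read-out is not stated. Tested at 30 µM. The record gives no direction; compounds that gave an IC50 in retests scored well above the rest, so higher reads as stronger inhibition. Values scatter widely below zero; nearly all retest evidence comes from the higher of the two concentrations used. Of about 64,000 compounds tested this way, about 940 (1.5%) reached 50% or more in at least one test.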

{"compound": "CC(=O)NCCNC(=O)Nc1ccc(Br)cc1C(C)C", "effect": -57.63}
{"compound": "Cc1noc(CN(C)CC2(O)CCCN(CCC3CCCCC3)C2=O)n1", "stereo": "centres undefined", "effect": -16.28}
{"compound": "O=C(O)C(F)(F)F.[H][C@@]12CCCO[C@]1([H])[C@@H](NC(=O)C1CC1)CN2Cc1cccc(C#N)c1", "effect": -35.12}
{"compound": "CCn1nc(CC(C)C)cc1C(=O)NCC(F)(F)F", "effect": -25.53}
{"compound": "CCCc1n[nH]c(C2CN(C(=O)c3cc(F)ccc3OC)CCO2)n1", "stereo": "centres undefined", "effect": 19.86}
{"compound": "CCc1nc(C2CCCN2Cc2nccn2CC(F)(F)F)no1", "stereo": "centres undefined", "effect": -22.32}
{"compound": "Cn1cc(S(=O)(=O)NC(CO)Cc2c[nH]c3ccccc23)cn1", "stereo": "centres undefined", "effect": -22.44}
{"compound": "O=S(=O)(CC1CCCCO1)Nc1cnn(CC(F)F)c1", "stereo": "centres undefined", "effect": 2.072}
{"compound": "Cc1ccc(C(=O)N2CC[C@@]3(C[C@@H](NS(C)(=O)=O)CCO3)C2)s1", "effect": -501.2}
{"compound": "CCc1nccn1C1CCCN(C(=O)c2ccnc(N(C)C)c2)C1", "stereo": "centres undefined", "effect": 0.2171}
{"compound": "CCCN1CCCC2(CCN(c3nccc(OC)n3)C2)C1=O", "stereo": "centres undefined", "effect": 3.606}
{"compound": "OCCCN(CCn1cncn1)c1ccccc1", "effect": -55.89}
{"compound": "CN(C)Cc1ccc(CNC(=O)NCC2(C)CCCS2)cc1", "stereo": "centres undefined", "effect": -19.01}
{"compound": "O=C(c1cnc(NCC2CCCO2)c(Cl)c1)N1CCOCC1", "stereo": "centres undefined", "effect": -24.46}
{"compound": "N#Cc1ccc(OCCNc2cccc(C(=O)N3CCOCC3)c2)cc1", "effect": 10.73}
{"compound": "O=C(c1cnccn1)N1CCC2(CCN(Cc3ccsc3)CC2)CC1", "effect": -5.759}
{"compound": "COCCn1c2c(ccc1=O)CC(N)CC2", "stereo": "centres undefined", "effect": -0.7126}
{"compound": "Cc1cc2ccccc2n1CC(=O)NC(C)C(=O)N1CCOCC1", "stereo": "centres undefined", "effect": -5.377}
{"compound": "CC(C)Nc1nc(N2CCCC2)nc2c1CN(c1ncc(F)cn1)CC2", "effect": 99.94}
{"compound": "Cc1nc2ccc(C(=O)N3C[C@@H](O)[C@H](N4CCOCC4)C3)cc2[nH]1", "effect": 1.174}
{"compound": "O=C(CSCCN1CCOCC1)N1CCc2ccccc2C1", "effect": -34.38}
{"compound": "COCCN1CCCC(c2nccnc2-c2cccc(Cl)c2)C1", "stereo": "centres undefined", "effect": -18.01}
{"compound": "CCN(Cc1ccccn1)Cc1cc(Cl)ccc1OC", "effect": -33.45}
{"compound": "Cc1cc(C)c(CNC(=O)N2CCC(N3CCNC3=O)CC2)c(=O)[nH]1", "effect": -12.16}
{"compound": "Cc1ccc(CN(CCN(C)C)Cc2c(C)nc3sccn23)o1.O=C(O)CC(O)(CC(=O)O)C(=O)O", "effect": -8.719}
{"compound": "CCn1ccnc1CN1CCC(Oc2cccc(F)c2)(C(=O)O)CC1", "effect": 12.41}
{"compound": "COc1cccc(C2CCCN2C(=O)c2cc3c([nH]c2=O)CCC3)c1", "stereo": "centres undefined", "effect": -1.886}
{"compound": "CC(C)CC1SCC(=O)Nc2c1cnn2-c1ccc(F)cc1", "stereo": "centres undefined", "effect": 39.15}
{"compound": "COc1ccc2c(c1)OCC(CNC(=O)c1ccc(=O)n(C)c1)C2", "stereo": "centres undefined", "effect": 37.44}
{"compound": "CC(C(N)=O)n1nc(-c2cccs2)cc(N)c1=O", "stereo": "centres undefined", "effect": -7.74}
{"compound": "Cc1cnccc1N1CCCN(C(=O)CCc2n[nH]c(C)c2C)CC1", "effect": -26.52}
{"compound": "Cc1nc(CC(=O)N2c3ccccc3OCC2C)cs1", "stereo": "centres undefined", "effect": -23.55}
{"compound": "COCC(=O)N1CCCC2(CCN(c3cncnc3)C2=O)C1", "stereo": "centres undefined", "effect": -20.69}
{"compound": "CCCn1ncc(CN(CCN(C)C)Cc2ccsc2)c1C", "effect": -33.25}
{"compound": "Cc1ccc(F)cc1S(=O)(=O)NCc1[nH]ncc1Br", "effect": 12.64}
{"compound": "Cc1noc(C)c1CN(Cc1ccccc1)C(C)C", "effect": -23.74}
{"compound": "CC(C)(C)c1ncc(C(=O)NCCNC(=O)Cc2ccccc2)s1", "effect": -0.5344}
{"compound": "Cc1nc2cc(=O)[nH]n2c(C)c1CC(=O)NC(C)C", "effect": 39.01}
{"compound": "COc1cc2c(nn1)CCN(Cc1noc(-c3ccccc3)n1)C2", "effect": -4.378}
{"compound": "Cn1cccc1C(=O)N1CCc2ncnc(C3CC3)c2CC1", "effect": -3.193}
{"compound": "CC(C)c1ncc2c(n1)CN(c1ncnc3[nH]ccc13)CC2", "effect": -41.86}
{"compound": "c1ccc(C2CCCN(c3ncnc4c3CCNC4)CC2)cc1", "stereo": "centres undefined", "effect": 41.62}
{"compound": "CN(C)c1nc(N)nc(CN2CCC(c3nc4ccccc4o3)CC2)n1", "effect": -48.82}
{"compound": "CN(Cc1ccc2c(c1)OCO2)Cc1cscn1", "effect": -10.71}

4 of the entries, repeated:

Compound	effect
CCCN1CCCC2(CCN(c3nccc(OC)n3)C2)C1=O (centres undefined)	3.606
COCCn1c2c(ccc1=O)CC(N)CC2 (centres undefined)	-0.7126
O=C(c1cnccn1)N1CCC2(CCN(Cc3ccsc3)CC2)CC1	-5.759
COCC(=O)N1CCCC2(CCN(c3cncnc3)C2=O)C1 (centres undefined)	-20.69